The list shows a part of the results. Residues, ends and D or L forms follow the SMILES beside them. *: point of attachment. Cbz = O=C(OCc1ccccc1)*
Experiments:
Experiment in all cases: log2 fold change, soluble protein after heating vs DMSO (PISA); higher = thermal stabilisation; K562 cells, 10 uM, 30 min; active = over 0.2 and 3.5 SD of the protein, either way, in both replicates (recomputed)
[1] = compound: C#Cc1cccc(Nc2ncnc3cc(OCCOC)c(OCCOC)cc23)c1 [erlotinib]
Method in brief: (§1)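 K562 cells at 2×10^6 cells/mL were exposed to 10 μM compound for 30 min, then aliquots were heated for 3 min across 48°C-58°C, pooled, and extracted in PBS containing 0.5% NP-40 at 4°C. The supernatant after 21,000xg for 90 min was taken as soluble protein and measured by TMTpro 16plex LC-MS/MS with channel sums equalised. Thermal stability is reported relative to control samples, with values from duplicates. Fold changes are given on a log2 scale.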

Protein sequences, listed by entry. Tags and fused reporters are not part of them. Lines headed by an entry give the natural chain unless they say otherwise; changes in a name come on top.
UniProt Q02156: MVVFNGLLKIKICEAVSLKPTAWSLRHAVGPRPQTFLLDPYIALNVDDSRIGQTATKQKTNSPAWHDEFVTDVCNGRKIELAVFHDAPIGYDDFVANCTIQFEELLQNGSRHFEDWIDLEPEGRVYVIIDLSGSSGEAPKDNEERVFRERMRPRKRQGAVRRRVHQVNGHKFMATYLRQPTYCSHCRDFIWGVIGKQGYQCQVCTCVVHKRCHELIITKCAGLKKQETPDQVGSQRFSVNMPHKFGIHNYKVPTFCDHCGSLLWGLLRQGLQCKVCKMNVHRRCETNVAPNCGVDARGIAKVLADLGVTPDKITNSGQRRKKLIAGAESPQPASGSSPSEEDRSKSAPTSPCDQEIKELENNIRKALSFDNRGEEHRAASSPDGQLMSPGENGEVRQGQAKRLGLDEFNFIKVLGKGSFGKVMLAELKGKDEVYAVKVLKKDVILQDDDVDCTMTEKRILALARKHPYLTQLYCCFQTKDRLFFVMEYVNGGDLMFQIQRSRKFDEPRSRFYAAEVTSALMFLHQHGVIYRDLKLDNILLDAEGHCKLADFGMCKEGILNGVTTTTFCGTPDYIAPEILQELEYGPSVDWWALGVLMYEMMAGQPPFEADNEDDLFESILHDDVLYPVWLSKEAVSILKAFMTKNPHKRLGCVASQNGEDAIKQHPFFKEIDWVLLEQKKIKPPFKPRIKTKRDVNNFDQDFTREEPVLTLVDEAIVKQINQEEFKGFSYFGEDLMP
UniProt O60256: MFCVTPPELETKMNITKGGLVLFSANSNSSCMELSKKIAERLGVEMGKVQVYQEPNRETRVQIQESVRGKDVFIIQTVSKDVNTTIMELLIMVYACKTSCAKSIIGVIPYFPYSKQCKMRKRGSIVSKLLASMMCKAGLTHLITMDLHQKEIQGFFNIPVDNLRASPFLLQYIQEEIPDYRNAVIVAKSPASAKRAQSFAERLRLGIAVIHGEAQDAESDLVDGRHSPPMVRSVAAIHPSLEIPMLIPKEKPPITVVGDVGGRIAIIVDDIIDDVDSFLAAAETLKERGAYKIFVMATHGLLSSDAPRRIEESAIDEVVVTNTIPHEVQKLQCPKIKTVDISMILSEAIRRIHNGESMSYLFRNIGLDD
UniProt Q9Y255: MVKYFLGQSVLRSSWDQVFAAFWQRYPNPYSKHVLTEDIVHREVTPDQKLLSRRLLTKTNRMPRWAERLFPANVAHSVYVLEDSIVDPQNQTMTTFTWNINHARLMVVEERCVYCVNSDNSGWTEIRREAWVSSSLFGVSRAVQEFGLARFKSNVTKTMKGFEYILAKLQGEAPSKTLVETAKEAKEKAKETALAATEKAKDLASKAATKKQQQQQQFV
UniProt P50336: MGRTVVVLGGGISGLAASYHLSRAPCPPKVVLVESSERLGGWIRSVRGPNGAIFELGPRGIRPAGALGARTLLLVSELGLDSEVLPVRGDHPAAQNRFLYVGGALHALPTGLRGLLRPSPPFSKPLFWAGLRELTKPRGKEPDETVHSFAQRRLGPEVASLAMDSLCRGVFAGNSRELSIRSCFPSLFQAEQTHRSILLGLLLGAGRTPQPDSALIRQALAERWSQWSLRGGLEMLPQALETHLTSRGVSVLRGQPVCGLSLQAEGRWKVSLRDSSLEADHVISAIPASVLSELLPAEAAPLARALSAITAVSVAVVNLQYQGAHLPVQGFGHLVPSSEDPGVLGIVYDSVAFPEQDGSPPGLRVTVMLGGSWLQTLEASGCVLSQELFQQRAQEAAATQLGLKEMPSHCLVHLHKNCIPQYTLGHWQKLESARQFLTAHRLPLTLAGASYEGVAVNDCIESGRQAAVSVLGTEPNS
UniProt P14222: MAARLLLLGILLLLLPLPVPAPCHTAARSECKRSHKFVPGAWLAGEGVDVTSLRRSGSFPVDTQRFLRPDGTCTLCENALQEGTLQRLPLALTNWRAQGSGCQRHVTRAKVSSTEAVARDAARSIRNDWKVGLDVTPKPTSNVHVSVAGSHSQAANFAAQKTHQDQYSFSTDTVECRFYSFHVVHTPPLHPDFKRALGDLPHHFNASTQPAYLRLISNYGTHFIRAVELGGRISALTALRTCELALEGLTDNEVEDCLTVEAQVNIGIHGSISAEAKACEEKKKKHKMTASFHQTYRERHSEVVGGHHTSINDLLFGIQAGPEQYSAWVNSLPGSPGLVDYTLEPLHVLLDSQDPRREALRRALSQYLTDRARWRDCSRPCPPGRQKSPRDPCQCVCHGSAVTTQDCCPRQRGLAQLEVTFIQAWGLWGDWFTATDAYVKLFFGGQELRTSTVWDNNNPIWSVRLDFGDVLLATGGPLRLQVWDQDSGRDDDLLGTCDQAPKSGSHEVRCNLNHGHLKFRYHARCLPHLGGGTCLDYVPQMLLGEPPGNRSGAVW
UniProt P13727: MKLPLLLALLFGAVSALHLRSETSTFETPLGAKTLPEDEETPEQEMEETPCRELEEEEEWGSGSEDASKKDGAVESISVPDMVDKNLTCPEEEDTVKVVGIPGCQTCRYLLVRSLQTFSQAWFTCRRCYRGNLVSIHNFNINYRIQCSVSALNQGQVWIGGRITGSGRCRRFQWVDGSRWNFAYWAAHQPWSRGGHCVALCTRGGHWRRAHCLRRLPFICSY
UniProt Q13131: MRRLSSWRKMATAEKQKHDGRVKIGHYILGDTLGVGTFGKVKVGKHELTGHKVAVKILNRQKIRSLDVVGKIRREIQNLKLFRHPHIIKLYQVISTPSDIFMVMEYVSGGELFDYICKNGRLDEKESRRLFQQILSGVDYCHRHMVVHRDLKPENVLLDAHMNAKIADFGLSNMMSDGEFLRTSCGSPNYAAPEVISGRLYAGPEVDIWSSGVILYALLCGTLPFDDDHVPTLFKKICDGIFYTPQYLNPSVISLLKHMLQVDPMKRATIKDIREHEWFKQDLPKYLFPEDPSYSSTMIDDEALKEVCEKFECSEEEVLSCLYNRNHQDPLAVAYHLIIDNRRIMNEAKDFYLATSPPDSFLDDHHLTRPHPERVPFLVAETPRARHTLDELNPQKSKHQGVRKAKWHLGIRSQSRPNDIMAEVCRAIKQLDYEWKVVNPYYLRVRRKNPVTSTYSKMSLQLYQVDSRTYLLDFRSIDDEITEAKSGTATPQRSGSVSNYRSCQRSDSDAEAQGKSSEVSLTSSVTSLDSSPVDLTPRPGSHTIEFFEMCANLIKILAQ
UniProt Q8NAV1: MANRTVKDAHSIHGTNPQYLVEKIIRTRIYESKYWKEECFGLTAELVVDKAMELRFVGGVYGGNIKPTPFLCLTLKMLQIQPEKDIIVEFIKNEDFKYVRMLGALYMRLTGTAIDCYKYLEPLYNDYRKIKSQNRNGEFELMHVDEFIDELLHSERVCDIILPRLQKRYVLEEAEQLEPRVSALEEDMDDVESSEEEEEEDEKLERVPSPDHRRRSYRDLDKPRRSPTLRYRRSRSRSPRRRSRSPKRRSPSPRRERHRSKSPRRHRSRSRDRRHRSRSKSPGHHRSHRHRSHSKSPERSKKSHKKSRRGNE
UniProt Q05655: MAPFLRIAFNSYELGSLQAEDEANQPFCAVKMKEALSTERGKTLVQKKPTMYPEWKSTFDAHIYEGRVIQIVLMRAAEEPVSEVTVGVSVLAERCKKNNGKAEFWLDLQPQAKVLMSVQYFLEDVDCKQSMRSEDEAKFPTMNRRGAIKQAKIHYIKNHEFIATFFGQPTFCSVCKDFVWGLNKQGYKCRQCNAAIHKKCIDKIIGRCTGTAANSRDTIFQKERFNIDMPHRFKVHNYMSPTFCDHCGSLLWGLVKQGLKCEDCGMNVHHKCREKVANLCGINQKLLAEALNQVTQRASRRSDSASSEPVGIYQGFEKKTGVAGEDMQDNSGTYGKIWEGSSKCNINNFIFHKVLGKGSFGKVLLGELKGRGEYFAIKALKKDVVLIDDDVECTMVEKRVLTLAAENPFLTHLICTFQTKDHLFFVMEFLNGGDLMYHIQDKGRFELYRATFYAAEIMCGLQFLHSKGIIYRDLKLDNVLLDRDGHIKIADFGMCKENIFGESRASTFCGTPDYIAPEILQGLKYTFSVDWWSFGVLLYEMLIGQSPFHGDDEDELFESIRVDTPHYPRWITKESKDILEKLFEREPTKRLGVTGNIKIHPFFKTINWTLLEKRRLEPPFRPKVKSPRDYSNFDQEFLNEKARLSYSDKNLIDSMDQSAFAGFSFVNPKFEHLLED
UniProt Q96LW4: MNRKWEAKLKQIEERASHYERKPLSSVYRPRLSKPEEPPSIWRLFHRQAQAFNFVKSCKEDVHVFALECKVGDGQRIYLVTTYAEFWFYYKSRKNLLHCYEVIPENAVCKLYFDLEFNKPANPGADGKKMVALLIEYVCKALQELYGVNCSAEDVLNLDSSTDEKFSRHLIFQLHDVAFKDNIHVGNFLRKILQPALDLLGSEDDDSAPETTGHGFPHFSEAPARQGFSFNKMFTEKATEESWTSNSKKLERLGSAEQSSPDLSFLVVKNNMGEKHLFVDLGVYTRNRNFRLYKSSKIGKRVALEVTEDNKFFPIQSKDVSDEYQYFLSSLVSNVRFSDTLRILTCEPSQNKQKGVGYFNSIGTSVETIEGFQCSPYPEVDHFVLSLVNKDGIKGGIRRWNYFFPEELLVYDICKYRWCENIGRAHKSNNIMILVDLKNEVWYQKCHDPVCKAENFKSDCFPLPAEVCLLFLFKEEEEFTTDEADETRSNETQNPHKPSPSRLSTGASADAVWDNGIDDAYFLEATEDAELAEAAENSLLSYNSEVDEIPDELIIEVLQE
UniProt Q9BSG0: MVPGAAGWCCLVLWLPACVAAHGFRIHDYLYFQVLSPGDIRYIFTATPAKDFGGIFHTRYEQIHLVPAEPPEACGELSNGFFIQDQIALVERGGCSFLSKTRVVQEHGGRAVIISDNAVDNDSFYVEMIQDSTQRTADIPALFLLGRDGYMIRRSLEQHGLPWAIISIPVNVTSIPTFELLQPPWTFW
UniProt Q2NL68: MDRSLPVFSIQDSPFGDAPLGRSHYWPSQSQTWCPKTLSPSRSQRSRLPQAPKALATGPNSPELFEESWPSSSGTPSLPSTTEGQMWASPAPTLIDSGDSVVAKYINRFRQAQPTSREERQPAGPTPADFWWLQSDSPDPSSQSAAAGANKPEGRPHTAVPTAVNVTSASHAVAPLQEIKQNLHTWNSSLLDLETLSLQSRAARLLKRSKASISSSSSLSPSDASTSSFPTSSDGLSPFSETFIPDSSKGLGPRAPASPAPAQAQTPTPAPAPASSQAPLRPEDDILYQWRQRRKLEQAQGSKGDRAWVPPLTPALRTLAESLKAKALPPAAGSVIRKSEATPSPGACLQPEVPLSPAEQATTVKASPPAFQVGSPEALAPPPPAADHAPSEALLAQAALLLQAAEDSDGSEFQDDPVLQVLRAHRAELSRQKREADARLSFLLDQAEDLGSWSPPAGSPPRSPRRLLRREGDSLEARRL

[2] = compound: C/C(=N\NC(=O)C1=CC(=CC=C1)S(=O)(=O)N2CCOCC2)/C3=C(C=CC(=C3)Cl)O
Method in brief: as §1

[3] = compound: C1=CC(=C(C=C1Cl)C2=NC3=NC=CN=C3C(=N2)NC4=CC=NC=C4)F
Method in brief: as §1

[4] = compound: C1=CC(=CC=C1C2=NC3=C(N2)C=C(C=C3)C(=O)N)OC4=CC=C(C=C4)Cl
Method in brief: as §1

[5] = compound: C1=CC2=C(C=CC(=C2)/C=C\3/C(=O)NC(=NCC4=CC=CS4)S3)N=C1
Method in brief: as §1

[6] = compound: C1=CC2=NC=CN=C2C=C1/C=C/3\C(=O)NC(=O)S3
Method in brief: as §1

[7] = compound: C1=CC=C2C(=C1)C3=NNC4=CC=CC(=C43)C2=O
Method in brief: as §1

[8] = compound: C1CCN(C1)C(=O)NC2=CC=CC(=C2)NC3=NC=C(C(=N3)NCCC4=CN=CN4)Br
Method in brief: as §1

[9] = compound: C1CN(CCC1(CC2=CC=C(C=C2)Cl)N)C3=NC=NC4=C3C=CN4
Method in brief: as §1

[10] = compound: C1COCCN1CCN2C3=CC=CC=C3N=C2NC(=O)C4=CC(=CC=C4)[N+](=O)[O-] [IRAK-1-4 Inhibitor I]
Method in brief: as §1

[11] = compound: C=CC(=O)N1CCC[C@@H](n2nc(-c3ccc(Oc4ccccc4)cc3)c3c(N)ncnc32)C1 [ibrutinib]
Method in brief: as §1

[12] = compound: CC(=O)c1cnc2ccc(-c3cc(Cl)c(O)c(Cl)c3)nc2c1N[C@H]1CC[C@H](CN(C)C)CC1
Method in brief: as §1

[13] = compound: CC(C)(O)CC(=O)NCCn1ccc2ncnc(Nc3ccc(Oc4cccc(C(F)(F)F)c4)c(Cl)c3)c21
Method in brief: as §1

[14] = compound: CC(C)C1=C2N=C(C=C(N2N=C1)NCC3=CC=CC=C3)NCCCCCCN
Method in brief: as §1

[15] = compound: CC(C)N(C[C@H]1O[C@@H](n2cnc3c(N)ncnc32)[C@H](O)[C@@H]1O)[C@H]1C[C@@H](CCc2nc3cc(C(C)(C)C)ccc3[nH]2)C1 [pinometostat]
Method in brief: as §1

[16] = compound: CC1=C(C2=C(C=C1)C(=O)C3=CC=CC=C3N2CCCN)C
Method in brief: as §1

[17] = compound: C1=CC=C(C=C1)C2=NC(=C(N2)C3=CC=NC=C3)C4=CC(=C(C=C4)Cl)O
Method in brief: as §1

[18] = compound: CC(C)(C)Cn1c(N)nc2ccc(-c3[nH]c(C(C)(C)C)nc3-c3ccc(F)cc3)nc21 [ralimetinib]
Method in brief: as §1

[19] = compound: CC(C)C[C@@H](C=O)NC(=O)[C@H](CC(C)C)NC(=O)[C@H](CC(C)C)NC(=O)OCc1ccccc1
Method in brief: as §1

[20] = compound: CC1=C(C(CC(=O)N1)C2=CC=C(C=C2)C(F)(F)F)C(=O)NC3=C(C=C4C(=C3)C=NN4)F
Method in brief: as §1

Measured: log2 fold change

PRKCE (UniProt Q02156)
active: [12] -0.468
inactive: [1] -0.076 | [2] 0.107 | [3] 0.111 | [4] 0.057 | [5] 0.06 | [6] 0.057 | [7] 0.004 | [8] -0.019 | [9] -0.095 | [10] -0.02 | [11] -0.013 | [13] -0.026 | [14] -0.153 | [15] -0.051 | [16] -0.009

PRPSAP2 (UniProt O60256)
inactive: [1] 0.053 | [2] 0.033 | [3] -0.017 | [4] -0.028 | [5] -0.06 | [6] 0.017 | [17] -0.006 | [7] 0.029 | [8] -0.02 | [9] 0.009 | [10] 0.02 | [11] 0.008 | [12] 0.074 | [18] -0.013 | [13] 0.003 | [14] 0.035 | [19] -0.017 | [15] -0.003 | [16] 0.063

PRELID1 (UniProt Q9Y255)
inactive: [1] -0.168 | [3] -0.016 | [4] 0.111 | [6] 0.033 | [8] -0.178 | [9] 0.184 | [10] 0.148 | [11] -0.06 | [13] 0.085 | [14] 0.224 | [15] -0.054 | [20] -0.025 | [16] -0.123

PPOX (UniProt P50336)
inactive: [1] 0.112 | [2] 0.415 | [3] 0.156 | [4] 0.416 | [5] 0.039 | [6] -0.004 | [17] 0.095 | [7] 0.013 | [8] 0.051 | [9] -0.011 | [10] 0.095 | [11] 0.136 | [12] -0.151 | [18] 0.077 | [13] 0.187 | [14] -0.217 | [19] -0.008 | [15] -0.039 | [16] -0.009

PRF1 (UniProt P14222)
inactive: [1] 0.111 | [3] -0.152 | [4] 0.042 | [6] -0.137 | [11] 0.013 | [13] -0.109 | [14] 0.061

PPP3CA (UniProt Q08209)
inactive: [1] 0.035 | [2] 0.015 | [4] -0.003 | [5] 0.116 | [6] 0.015 | [17] -0.118 | [7] -0.012 | [8] -0.066 | [9] 0.029 | [10] 0.083 | [11] -0.01 | [12] 0.089 | [18] -0.099 | [14] 0.043 | [19] -0.061 | [15] -0.04 | [20] -0.173 | [16] -0.163

Retrieved one by one from the entries so far (two):
PPP3CA (UniProt Q08209)
inactive: [1] 0.035 | [2] 0.015 | [4] -0.003 | [5] 0.116 | [6] 0.015 | [17] -0.118 | [7] -0.012 | [8] -0.066 | [9] 0.029 | [10] 0.083 | [11] -0.01 | [12] 0.089 | [18] -0.099 | [14] 0.043 | [19] -0.061 | [15] -0.04 | [20] -0.173 | [16] -0.163

PPOX (UniProt P50336)
inactive: [1] 0.112 | [2] 0.415 | [3] 0.156 | [4] 0.416 | [5] 0.039 | [6] -0.004 | [17] 0.095 | [7] 0.013 | [8] 0.051 | [9] -0.011 | [10] 0.095 | [11] 0.136 | [12] -0.151 | [18] 0.077 | [13] 0.187 | [14] -0.217 | [19] -0.008 | [15] -0.039 | [16] -0.009

The results go on.

PRG2 (UniProt P13727)
inactive: [1] 0.012 | [3] 0.062 | [4] 0.006 | [8] 0.115 | [9] -0.174 | [10] -0.01 | [13] 0.078 | [14] 0.137 | [15] 0.248 | [16] -0.333

PRKAA1 isoform 2 (UniProt Q13131)
active: [12] -0.343
inactive: [1] 0 | [2] 0.026 | [3] 0.084 | [4] 0.045 | [5] 0.018 | [6] 0.013 | [17] 0.012 | [7] -0.051 | [8] -0.034 | [9] 0.012 | [10] 0.046 | [11] -0.006 | [18] -0.003 | [13] -0.009 | [14] -0.025 | [19] -0.014 | [15] -0.014 | [16] 0.019

PRPF38A (UniProt Q8NAV1)
inactive: [1] -0.032 | [2] 0.035 | [3] -0.01 | [4] 0.049 | [5] 0 | [6] -0.046 | [17] 0 | [7] -0.08 | [8] 0.008 | [9] 0.018 | [10] 0.011 | [11] -0.051 | [18] 0.03 | [13] 0.012 | [14] -0.029 | [19] 0.005 | [15] 0.027 | [16] -0.014
active: [12] -0.237

PRKCD (UniProt Q05655)
active: [12] -0.685
inactive: [1] -0.01 | [2] 0.004 | [3] 0.028 | [4] 0.065 | [5] 0.016 | [6] 0.044 | [17] -0.006 | [7] -0.008 | [8] 0.009 | [9] -0.001 | [10] 0.043 | [11] -0.027 | [18] -0.041 | [13] -0.013 | [14] -0.004 | [19] 0.022 | [15] 0.017 | [16] 0

PRIMPOL (UniProt Q96LW4)
inactive: [2] -0.171 | [5] -0.092 | [7] 0.25 | [8] -0.006 | [9] 0.023 | [12] -0.125 | [16] -0.119

PRADC1 (UniProt Q9BSG0)
inactive: [3] 0.096 | [8] -0.078 | [9] 0.064 | [10] 0.066 | [13] -0.05 | [15] -0.244 | [16] 0.167

PROSER3 (UniProt Q2NL68)
inactive: [1] -0.196 | [4] 0.236 | [6] -0.054 | [8] -0.022 | [9] -0.058 | [11] 0.18 | [14] -0.037 | [20] -0.038 | [16] -0.013
